{"source": "PubChem BioAssay AID248", "about": "(DTP/NCI, 2004)", "system": "L1210 leukemia ip in BDF1 mice, survival T/C", "experiment": "NCI In Vivo Anticancer Drug Screen. Data for tumor model L1210 Leukemia (intraperitoneal) in B6D2F1 (BDF1) mice", "conditions": "T/C endpoint: mean survival time, vehicle: saline, higher T/C = longer survival", "note": "The list does not hold the whole screen: it covers a few groups of compounds. Not every dose and run of a compound is shown. T/C gives the treated animals as a percentage of the vehicle group. Where survival is the endpoint, this PubChem deposit counts one and a half times the control or more as active, and values a quarter to a half above the control carry no call in these data; other NCI protocols may use other cut-offs. Schedule codes are those of the source, read here as Q, the interval in days (D) or hours (H), X, the number of doses. Counts like (3×) say how often a value occurs here. Some doses were run more than once; their values stand side by side, smallest first. Some schedules carry Z or #; the key to these is not given."}
{"compound": "NCCNCCCl", "values": [{"measurement": "T/C", "setting": "dose: 2.5 mg/kg/injection, schedule: Q#A X034 (ip)", "result": "97 % of control"}, {"measurement": "T/C", "setting": "dose: 4.7 mg/kg/injection, schedule: Q01DX015 (ip)", "result": "115 % of control"}, {"measurement": "T/C", "setting": "dose: 5.0 mg/kg/injection, schedule: Q01DX017 (ip)", "result": "101 % of control"}, {"measurement": "T/C", "setting": "dose: 5.0 mg/kg/injection, schedule: Q02DX009 (ip)", "result": "96 % of control"}, {"measurement": "T/C", "setting": "dose: 5.0 mg/kg/injection, schedule: Q#A X034 (ip)", "result": "102 % of control"}, {"measurement": "T/C", "setting": "dose: 7.0 mg/kg/injection, schedule: Q01DX015 (ip)", "result": "112 % of control"}, {"measurement": "T/C", "setting": "dose: 9.37 mg/kg/injection, schedule: Q#A X034 (ip)", "result": "91 % of control"}, {"measurement": "T/C", "setting": "dose: 9.4 mg/kg/injection, schedule: Q01DX015 (ip)", "result": "95 % of control"}, {"measurement": "T/C", "setting": "dose: 10.0 mg/kg/injection, schedule: Q01DX017 (ip)", "result": "98 % of control"}, {"measurement": "T/C", "setting": "dose: 10.0 mg/kg/injection, schedule: Q02DX009 (ip)", "result": "97 % of control"}, {"measurement": "T/C", "setting": "dose: 10.0 mg/kg/injection, schedule: Q#A X034 (ip)", "result": "100 % of control"}, {"measurement": "T/C", "setting": "dose: 14.0 mg/kg/injection, schedule: Q01DX015 (ip)", "result": "125 % of control"}, {"measurement": "T/C", "setting": "dose: 16.0 mg/kg/injection, schedule: Q01DX001 (ip)", "result": "108 % of control"}, {"measurement": "T/C", "setting": "dose: 18.0 mg/kg/injection, schedule: Q01DX015 (ip)", "result": "140 % of control"}, {"measurement": "T/C", "setting": "dose: 18.75 mg/kg/injection, schedule: Q01DX017 (ip)", "result": "94 % of control"}, {"measurement": "T/C", "setting": "dose: 18.75 mg/kg/injection, schedule: Q02DX009 (ip)", "result": "95 % of control"}, {"measurement": "T/C", "setting": "dose: 18.75 mg/kg/injection, schedule: Q#A X034 (ip)", "result": "92 % of control"}, {"measurement": "T/C", "setting": "dose: 18.8 mg/kg/injection, schedule: Q01DX015 (ip)", "result": "140 % of control"}, {"measurement": "T/C", "setting": "dose: 20.0 mg/kg/injection, schedule: Q01DX017 (ip)", "result": "104 % of control"}, {"measurement": "T/C", "setting": "dose: 20.0 mg/kg/injection, schedule: Q02DX009 (ip)", "result": "97 % of control"}, {"measurement": "T/C", "setting": "dose: 20.0 mg/kg/injection, schedule: Q#A X034 (ip)", "result": "97 % of control"}, {"measurement": "T/C", "setting": "dose: 28.0 mg/kg/injection, schedule: Q01DX015 (ip)", "result": "147 % of control"}, {"measurement": "T/C", "setting": "dose: 31.0 mg/kg/injection, schedule: Q01DX001 (ip)", "result": "114 % of control"}, {"measurement": "T/C", "setting": "dose: 37.0 mg/kg/injection, schedule: Q01DX015 (ip)", "result": "180 % of control"}, {"measurement": "T/C", "setting": "dose: 37.5 mg/kg/injection, schedule: Q01DX005 (ip)", "result": "89 % of control"}, {"measurement": "T/C", "setting": "dose: 37.5 mg/kg/injection, schedule: Q01DX015 (ip)", "result": "176 % of control"}, {"measurement": "T/C", "setting": "dose: 37.5 mg/kg/injection, schedule: Q01DX017 (ip)", "result": "93 % of control"}, {"measurement": "T/C", "setting": "dose: 37.5 mg/kg/injection, schedule: Q02DX009 (ip)", "result": "92 % of control"}, {"measurement": "T/C", "setting": "dose: 37.5 mg/kg/injection, schedule: Q04DX005 (ip)", "result": "95 % of control"}, {"measurement": "T/C", "setting": "dose: 37.5 mg/kg/injection, schedule: Q#A X034 (ip)", "result": "93 % of control"}, {"measurement": "T/C", "setting": "dose: 40.0 mg/kg/injection, schedule: Q01DX017 (ip)", "result": "100 % of control"}, {"measurement": "T/C", "setting": "dose: 40.0 mg/kg/injection, schedule: Q02DX009 (ip)", "result": "101 % of control"}, {"measurement": "T/C", "setting": "dose: 40.0 mg/kg/injection, schedule: Q#A X034 (ip)", "result": "100 % of control"}, {"measurement": "T/C", "setting": "dose: 56.25 mg/kg/injection, schedule: Q01DX015 (ip)", "result": "197 % of control"}, {"measurement": "T/C", "setting": "dose: 62.0 mg/kg/injection, schedule: Q01DX001 (ip)", "result": "130 % of control"}, {"measurement": "T/C", "setting": "dose: 75.0 mg/kg/injection, schedule: Q01DX001 (ip)", "result": "96 % of control"}, {"measurement": "T/C", "setting": "dose: 75.0 mg/kg/injection, schedule: Q01DX005 (ip)", "result": "93 % of control"}, {"measurement": "T/C", "setting": "dose: 75.0 mg/kg/injection, schedule: Q01DX015 (ip)", "result": "110 and 273 % of control"}, {"measurement": "T/C", "setting": "dose: 75.0 mg/kg/injection, schedule: Q01DX017 (ip)", "result": "94, 100, 101 % of control"}, {"measurement": "T/C", "setting": "dose: 75.0 mg/kg/injection, schedule: Q02DX009 (ip)", "result": "92 and 100 % of control"}, {"measurement": "T/C", "setting": "dose: 75.0 mg/kg/injection, schedule: Q04DX005 (ip)", "result": "90 % of control"}, {"measurement": "T/C", "setting": "dose: 75.0 mg/kg/injection, schedule: Q#A X034 (ip)", "result": "92 % of control"}, {"measurement": "T/C", "setting": "dose: 80.0 mg/kg/injection, schedule: Q01DX017 (ip)", "result": "105 % of control"}, {"measurement": "T/C", "setting": "dose: 80.0 mg/kg/injection, schedule: Q02DX009 (ip)", "result": "98 % of control"}, {"measurement": "T/C", "setting": "dose: 80.0 mg/kg/injection, schedule: Q#A X034 (ip)", "result": "108 % of control"}, {"measurement": "T/C", "setting": "dose: 100.0 mg/kg/injection, schedule: Q01DX001 (ip)", "result": "102 % of control"}, {"measurement": "T/C", "setting": "dose: 112.5 mg/kg/injection, schedule: Q01DX015 (ip)", "result": "141 % of control"}, {"measurement": "T/C", "setting": "dose: 125.0 mg/kg/injection, schedule: Q01DX001 (ip)", "result": "141, 151, 187 % of control"}, {"measurement": "T/C", "setting": "dose: 150.0 mg/kg/injection, schedule: Q01DX001 (ip)", "result": "97 % of control"}, {"measurement": "T/C", "setting": "dose: 150.0 mg/kg/injection, schedule: Q01DX005 (ip)", "result": "92 and 96 % of control"}, {"measurement": "T/C", "setting": "dose: 150.0 mg/kg/injection, schedule: Q01DX015 (ip)", "result": "89 % of control"}, {"measurement": "T/C", "setting": "dose: 150.0 mg/kg/injection, schedule: Q01DX017 (ip)", "result": "93 and 100 % of control (2×)"}, {"measurement": "T/C", "setting": "dose: 150.0 mg/kg/injection, schedule: Q02DX009 (ip)", "result": "93 and 102 % of control"}, {"measurement": "T/C", "setting": "dose: 150.0 mg/kg/injection, schedule: Q04DX005 (ip)", "result": "96 and 100 % of control"}, {"measurement": "T/C", "setting": "dose: 160.0 mg/kg/injection, schedule: Q01DX017 (ip)", "result": "114 % of control"}, {"measurement": "T/C", "setting": "dose: 160.0 mg/kg/injection, schedule: Q02DX009 (ip)", "result": "105 % of control"}, {"measurement": "T/C", "setting": "dose: 200.0 mg/kg/injection, schedule: Q01DX001 (ip)", "result": "97 % of control"}, {"measurement": "T/C", "setting": "dose: 250.0 mg/kg/injection, schedule: Q01DX001 (ip)", "result": "164 % of control"}, {"measurement": "T/C", "setting": "dose: 300.0 mg/kg/injection, schedule: Q01DX001 (ip)", "result": "93 and 96 % of control"}, {"measurement": "T/C", "setting": "dose: 300.0 mg/kg/injection, schedule: Q01DX005 (ip)", "result": "97 and 110 % of control"}, {"measurement": "T/C", "setting": "dose: 300.0 mg/kg/injection, schedule: Q01DX017 (ip)", "result": "110 % of control (2×)"}, {"measurement": "T/C", "setting": "dose: 300.0 mg/kg/injection, schedule: Q02DX009 (ip)", "result": "103 % of control"}, {"measurement": "T/C", "setting": "dose: 300.0 mg/kg/injection, schedule: Q04DX005 (ip)", "result": "96 and 103 % of control"}, {"measurement": "T/C", "setting": "dose: 400.0 mg/kg/injection, schedule: Q01DX001 (ip)", "result": "97 % of control"}, {"measurement": "T/C", "setting": "dose: 500.0 mg/kg/injection, schedule: Q01DX001 (ip)", "result": "86 % of control"}, {"measurement": "T/C", "setting": "dose: 600.0 mg/kg/injection, schedule: Q01DX001 (ip)", "result": "96, 98, 103 % of control"}, {"measurement": "T/C", "setting": "dose: 600.0 mg/kg/injection, schedule: Q01DX005 (ip)", "result": "108 % of control"}, {"measurement": "T/C", "setting": "dose: 600.0 mg/kg/injection, schedule: Q01DX017 (ip)", "result": "100 % of control"}, {"measurement": "T/C", "setting": "dose: 600.0 mg/kg/injection, schedule: Q02DX009 (ip)", "result": "102 % of control"}, {"measurement": "T/C", "setting": "dose: 600.0 mg/kg/injection, schedule: Q04DX005 (ip)", "result": "98 % of control"}, {"measurement": "T/C", "setting": "dose: 800.0 mg/kg/injection, schedule: Q01DX001 (ip)", "result": "103 % of control"}, {"measurement": "T/C", "setting": "dose: 1200.0 mg/kg/injection, schedule: Q01DX001 (ip)", "result": "98 % of control"}]}
